PubChem BioAssay AID2685 (National Center for Advancing Translational Sciences (NCATS), 2010)
This is one part of the list. The main result of the screen is listed elsewhere. These columns were measured beside it and carry no call. The list favours compounds with an active or inconclusive main result. The note in brackets gives the kind of curve behind each potency; many fits are weak.

Assay: qHTS Assay for Lipid Storage Modulators in Drosophila S3 Cells;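 as to cell number change: cells counted by Cell Tracker Red CMTPX staining in the red channel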
Conditions: BODIPY lipid droplet fluorescence, 18-24 h; for cell number change: measured here: cell count max response, cells fed with added oleic acid
How it was run: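 Drosophila S3 cells loaded with oleic acid (400 uM, as added) and compounds at several concentrations; lipid droplets imaged by 488-nm laser-scanning cytometry, 500–530 nm intensity and object ratio to cell channel. Percent activity normalized to 20 uM Triacsin C.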

[1] = measured here: lipid fluorescence (Fed channel) AC50, cells fed with added oleic acid
[2] = measured here: cell number channel AC50, cells fed with added oleic acid

Compound	cell number change [%]	AC50 [1]	AC50 [2]
CCc1nc(OCc2ccco2)c2sc3nc4c(cc3c2n1)COC(C)(C)C4	-7.89	32.6 µM [rising, single point]	
Cc1cc(F)ccc1S(=O)(=O)N1CCCOC1CNC(=O)C(=O)NCc1ccccn1 (stereo not given)	14.6		
O=C(COC(=O)c1cnccn1)N=c1sccn1Cc1ccccc1Cl		16.4 µM [rising, partial curve]	
COc1ccccc1CCNC(=O)/C(=C/c1cccnc1)NC(=O)c1ccccc1	13.6	1.64 µM [rising, full curve, poor fit]	
CC1(c2ccccc2)NC(=O)N(CC(=O)NNC(=O)c2ccccc2)C1=O (stereo not given)	-15.5	25.9 µM [rising, partial curve, poor fit]	
Cc1ccc(COC(=O)c2nn(C)c(=O)c3ccccc23)cc1	-13.3		
CC(C(=O)OCc1nnc(-c2ccccc2)o1)N1C(=O)c2ccccc2C1=O (stereo not given)	13.4		6.51 µM [falling, single point]
c1ccc(CNc2ncnc3c2cnn3-c2ccccc2)cc1	-11.5	29.1 µM [rising, single point]	
CCCCn1c(SCC(=O)NCc2ccc(OC)c(C(=O)O)c2)nc2cc(S(N)(=O)=O)ccc21	22.4	35.5 µM [falling, single point]	
Cc1ccc(C2c3[nH]c4ccccc4c3C[C@H]3C(=O)N(c4ccccc4C(=O)NCCCN4CCOCC4)C(=O)N23)cc1 (stereo not given in full)	9.88		
COC(=O)CC1=NC(=O)CS1	4.91	29.1 µM [rising, single point]	
CN(C)C(CNC(=O)C1CCCN(C(=O)c2ccc(Cl)cc2)C1)c1ccco1 (stereo not given)	-20.9		0.00411 µM [falling, full curve, poor fit]
CC(=O)CSc1nc2ccc(Nc3nc(N4CCOCC4)nc(N4CCOCC4)n3)cc2s1	-18.8		
Cc1cc(C)c(S(=O)(=O)/N=C2\C=C(NS(=O)(=O)c3ccccc3)C(=O)c3ccccc32)c(C)c1	-6.58	5.62 µM [rising, single point]	
O=C(CSc1cccc2cccnc12)Nc1ccccc1F	-19.6	20.6 µM [falling, single point]	
Cc1cccc(OCC(O)Cn2c(=N)n(Cc3ccccc3)c3ccccc32)c1 (stereo not given)	-70.2	29.1 µM [falling, single point]	29.1 µM [falling, single point]
CC(=O)c1ccc(S(=O)(=O)N2CCN(C(=O)c3ccc(-n4nc(C)c(Cl)c4C)cc3)CC2)cc1	-5.23	32.6 µM [falling, single point]	
CC(NC(=O)c1cccc(S(=O)(=O)N2CCN(Cc3ccccc3)CC2)c1)c1ccc(Br)cc1 (stereo not given)	26.8	0.00461 µM [rising, full curve, poor fit]	
CC1CCCCC1NC(=O)c1cc(=O)[nH]c2ccccc12 (stereo not given)	12		

Copied from the list:
CC1CCCCC1NC(=O)c1cc(=O)[nH]c2ccccc12 (stereo not given) | cell number change [%]: 12
CN(C)C(CNC(=O)C1CCCN(C(=O)c2ccc(Cl)cc2)C1)c1ccco1 (stereo not given) | cell number change [%]: -20.9

Further structures follow:

Compound	cell number change [%]	AC50 [1]	AC50 [2]
CCc1ccc2[nH]c(=O)c(CN(CCCN3CCOCC3)C(=O)Nc3cccc(Cl)c3)cc2c1	-5.36	0.116 µM [rising, full curve, poor fit]	2.91 µM [rising, single point]
Cc1cccc(OCc2nnc(N)s2)c1C	0.0585	2.59 µM [rising, full curve, poor fit]	
COc1ccc(CCNC(=O)CN2CCN(Cc3ccccc3F)C2=O)cc1OC	-53.8	29.1 µM [falling, single point]	4.11 µM [falling, partial curve]
Cc1ccc(S(=O)(=O)N(C)C)cc1NS(=O)(=O)c1ccc(Cl)s1		10.3 µM [falling, partial curve, poor fit]	
N#C/C(=C1/C(=O)Nc2ccc(Br)cc21)c1ccccn1		3.66 µM [rising, partial curve, poor fit]	
COc1ccc(C(=S)N2CCOCC2)cc1OC(=O)c1cc(OC)c(OC)c(OC)c1	7.89	35.5 µM [rising, single point]	
COc1cc(-c2csc(CCn3nc(C)cc3C)n2)cc(OC)c1OC	2.33		
Cc1ccc(C(=O)n2nnc3ccccc32)cc1[N+](=O)[O-]	-14.7	0.103 µM [falling, full curve, poor fit]	
Cc1ccc(S(=O)(=O)N2CCN(Cc3ccccn3)CC2)cc1	3.12	32.6 µM [falling, single point]	
Cc1nnc(NC(=O)CN2CCN(Cc3ccc(F)cc3Cl)CC2)s1	29		
O=C(CCC(=O)Nc1nnc(C2CCCCC2)s1)NCC1CCCO1 (stereo not given)	-10.4	6.51 µM [falling, single point]	3.26 µM [falling, single point]
O=C(Oc1nsnc1N1CCOCC1)N1CCOCC1	-19.9	29.1 µM [falling, single point]	
CCN(C(=O)CN1C(=O)S/C(=C\c2ccc(Cl)cc2)C1=O)C1CCS(=O)(=O)C1 (stereo not given)	14.5	0.00517 µM [rising, full curve, poor fit]	
CC(C)(C)C(=O)C(Oc1cccc2nonc12)n1cncn1 (stereo not given)	-13		
CCOc1cc(CNc2ccccc2SC)ccc1O	5.54	0.00411 µM [falling, full curve, poor fit]	
Cc1ccc(S(=O)(=O)Nc2cc3c(C(=O)O)c(C)oc3c3ccccc23)c(C)c1	-2.99	3.66 µM [falling, single point]	
COc1ccccc1S(=O)(=O)Cc1ccc(C(=O)N2CCN(c3cccc(Cl)c3)CC2)o1		0.58 µM [falling, full curve, poor fit]	
Cc1ccc(N2C(=O)[C@@H]3C(C(=O)CN4C(=O)c5ccccc5C4=O)=NN[C@@H]3C2=O)c(C)c1	14.8	0.731 µM [rising, partial curve]	1.03 µM [rising, full curve, poor fit]
OCC1(Cc2ccccc2)CCN(Cc2cnc(-c3ccc(Cl)cc3)nc2)CC1	-37.5	18.4 µM [falling, partial curve, poor fit]	25.9 µM [falling, single point]
